Results are given in words; binding and its absence hold for the method and conditions named. Binding seen in cells or lysates may run through a third protein. Some entries that bind do so weakly or less than the wild type.

By UniProt entry, the sequences of proteins in these tests, tags left out. Where a name states a change or a piece, a line headed by the entry shows the natural chain unless it says otherwise.
UniProt P19474: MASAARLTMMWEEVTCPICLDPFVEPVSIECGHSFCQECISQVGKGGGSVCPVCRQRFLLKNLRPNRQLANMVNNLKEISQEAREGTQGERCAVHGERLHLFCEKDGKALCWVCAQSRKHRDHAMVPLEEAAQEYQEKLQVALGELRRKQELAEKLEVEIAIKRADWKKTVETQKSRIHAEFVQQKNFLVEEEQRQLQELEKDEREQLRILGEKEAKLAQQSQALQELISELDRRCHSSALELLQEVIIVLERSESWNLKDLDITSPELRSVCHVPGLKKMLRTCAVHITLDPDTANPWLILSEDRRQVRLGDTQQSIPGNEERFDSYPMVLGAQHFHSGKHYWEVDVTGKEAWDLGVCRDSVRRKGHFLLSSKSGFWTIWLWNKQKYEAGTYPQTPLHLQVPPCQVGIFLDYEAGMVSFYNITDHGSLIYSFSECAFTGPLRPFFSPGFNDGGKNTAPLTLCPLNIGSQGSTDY

The assay concerns the target T1, hepatocyte nuclear factor 4α (human (endogenous in HepG2)) (UniProt P41235).
T1 sequence: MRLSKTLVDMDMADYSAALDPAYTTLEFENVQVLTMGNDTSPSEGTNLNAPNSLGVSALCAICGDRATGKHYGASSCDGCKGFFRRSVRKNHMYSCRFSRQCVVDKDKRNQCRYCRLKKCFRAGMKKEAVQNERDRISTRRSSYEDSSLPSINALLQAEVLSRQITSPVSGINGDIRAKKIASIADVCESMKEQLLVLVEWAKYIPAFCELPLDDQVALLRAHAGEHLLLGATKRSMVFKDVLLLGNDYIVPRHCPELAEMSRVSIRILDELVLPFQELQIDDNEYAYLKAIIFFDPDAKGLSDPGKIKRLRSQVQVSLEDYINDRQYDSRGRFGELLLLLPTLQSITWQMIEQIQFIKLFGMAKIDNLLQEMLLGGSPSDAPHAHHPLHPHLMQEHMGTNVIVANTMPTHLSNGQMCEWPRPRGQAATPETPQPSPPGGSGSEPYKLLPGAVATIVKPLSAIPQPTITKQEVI
As to the kind of experiment: co-IP; HepG2 cells transfected with the Myc-TRIM21 constructs (Fig. 6A: with pUb-HA, MG132 20 µM for 5 h before harvest); Pierce IP lysis buffer; lysates incubated with the HNF4α antibody at 4°C overnight, protein A-agarose, three washes with cold PBS; Western blot. A general note: In western blotting, separated proteins are transferred to a membrane and probed.
With “Myc-TRIM21 (tripartite motif-containing protein 21, wild type) (from UniProt P19474 1-475) (enzyme)”, the binding entry is recorded as “binds”. For the substance “Myc-TRIM21 RING domain deletion mutant (from UniProt P19474 57-475) (domain or fragment)”, the binding result was “binds”. Take “Myc-TRIM21 PRY-SPRY deletion mutant (from UniProt P19474 2-285) (domain or fragment)”: the binding entry is on record as “no binding”.

These data come from article PMC11237615.
